Results deposited as PubChem BioAssay AID1053208 (Peter MacCallum Cancer Centre, 2014)

Screen: 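Genes whose silencing cuts survival of bone tumour cells only with doxorubicin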 (primary screen)
System: mouse osteosarcoma cells, early-passage culture from an engineered mouse model of fibroblastic bone tumour
Reagent: siRNA pool against mouse genes, 40 nM
Timing: about 120 h (48 h before drug, then 72 h with drug)
Conditions: doxorubicin 100 nM for 72 h, roughly 30-40% inhibitory dose
Measured: 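Viability read as ATP luminescence after 72 h of 100 nM doxorubicin or none, duplicate wells averaged, scaled to non-targeting siRNA, then expressed as robust z-scores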
Direction: viability z-score with doxorubicin: higher = more viable cells under doxorubicin; viability z-score without drug: higher = more viable cells with knock-down alone
Hit rule: 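a pool counts as active when its viability z-score with doxorubicin is -2 or below and its z-score without drug lies between -2 and 2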
The whole screen tested about 17,000 reagents; below is an unselected part. In the full data, 788 (4.7%) got an active call. 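Calls rest on z-score classes alone; an extra cut-off of viability at most 70% of control was not applied to them.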 A number with no mark means an inactive call. Not all columns of the deposit are shown.

After knock-down of Akr1c14 the results were combined z-score class no change with or without drug; viability z-score with doxorubicin -0.79; viability z-score without drug -0.84.
Silencing of A630012P03Rik gave: combined z-score class no change with or without drug; viability z-score with doxorubicin 0.45; viability z-score without drug -0.84.
After knock-down of Atn1, the screen gave combined z-score class no change with or without drug; viability z-score with doxorubicin 0; viability z-score without drug -0.51.
With knock-down of Zap70 the results were combined z-score class no change with or without drug; viability z-score with doxorubicin -0.22; viability z-score without drug 1.52.
With knock-down of E030024N20Rik, the screen gave combined z-score class high cell count without drug only; viability z-score with doxorubicin 0.22; viability z-score without drug 3.04.
Dynlrb1 scored combined z-score class no change with or without drug; viability z-score with doxorubicin 1.35; viability z-score without drug 0.17.
Gphb5 showed combined z-score class no change with or without drug; viability z-score with doxorubicin -0.22; viability z-score without drug -0.34.
Fitm1 gave combined z-score class no change with or without drug; viability z-score with doxorubicin -0.11; viability z-score without drug 0.17.
1110059E24Rik gave combined z-score class no change with or without drug; viability z-score with doxorubicin 1.57; viability z-score without drug 1.52.
Depletion of Wnt9b gave: combined z-score class no change with or without drug; viability z-score with doxorubicin 0.34; viability z-score without drug -0.17.
Silencing of Ube2n came out at: combined z-score class no change with or without drug; viability z-score with doxorubicin -0.9; viability z-score without drug 1.85.
For Pgrmc1 the deposit lists combined z-score class no change with or without drug; viability z-score with doxorubicin -0.22; viability z-score without drug -1.18.
After knock-down of Mppe1, the record shows combined z-score class no change with or without drug; viability z-score with doxorubicin -0.45; viability z-score without drug -0.84.
After knock-down of Cxxc1, the screen gave combined z-score class no change with or without drug; viability z-score with doxorubicin 0.9; viability z-score without drug -0.17.
For Ptpmt1, the entry reads combined z-score class no change with or without drug; viability z-score with doxorubicin 0; viability z-score without drug 0.17.
After knock-down of Ppfibp2, the record shows combined z-score class no change with or without drug; viability z-score with doxorubicin -0.9; viability z-score without drug -0.84.
Against Trex1, the entry reads combined z-score class low cell count with doxorubicin only (active); viability z-score with doxorubicin -2.02; viability z-score without drug 0.51.
With knock-down of P3h4 the results were combined z-score class low cell count with and without drug; viability z-score with doxorubicin -2.02; viability z-score without drug -2.7.
Depletion of Slc9a1 gave: combined z-score class no change with or without drug; viability z-score with doxorubicin -0.67; viability z-score without drug -0.17.
With knock-down of Or8k16, the record shows combined z-score class low cell count with and without drug; viability z-score with doxorubicin -2.14; viability z-score without drug -2.87.
Depletion of Cyb561 gave: combined z-score class no change with or without drug; viability z-score with doxorubicin 0.67; viability z-score without drug -0.51.
Silencing of Antxrl gave: combined z-score class no change with or without drug; viability z-score with doxorubicin 0.11; viability z-score without drug 0.51.
Or1e25 scored combined z-score class no change with or without drug; viability z-score with doxorubicin 0; viability z-score without drug -0.51.
Knock-down of Pcdhb17 gave: combined z-score class low cell count with doxorubicin only (active); viability z-score with doxorubicin -2.25; viability z-score without drug -0.84.
Ndrg2 scored combined z-score class no change with or without drug; viability z-score with doxorubicin 1.35; viability z-score without drug 0.51.
Pelo gave combined z-score class low cell count with and without drug; viability z-score with doxorubicin -2.7; viability z-score without drug -2.53.
Depletion of Tbc1d12 gave: combined z-score class high cell count with doxorubicin only; viability z-score with doxorubicin 2.02; viability z-score without drug 1.85.
Apool gave combined z-score class no change with or without drug; viability z-score with doxorubicin 1.24; viability z-score without drug 1.52.

3 entries already listed, ordered by “viability z-score without drug”, high to low:
Ndrg2: combined z-score class = no change with or without drug; viability z-score with doxorubicin = 1.35; viability z-score without drug = 0.51
Or1e25: combined z-score class = no change with or without drug; viability z-score with doxorubicin = 0; viability z-score without drug = -0.51
Pcdhb17: combined z-score class = low cell count with doxorubicin only (active); viability z-score with doxorubicin = -2.25; viability z-score without drug = -0.84
